Measurements reported in the supplement of paper PMC12009310.
Structures can show the parent of a compound that is named as a salt. ± gives the standard deviation of the averaged measurements. The list shows a part of the results. Part of the spread comes from offsets between plates or batches.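 A mouse kidney inner medullary collecting duct cell line was silenced for the ciliary gene Rpgrip1l or given non-targeting control siRNA. Primary scores average two runs versus batch controls. In follow-up screening, hits raised cilia at least 2 over matched controls; compounds lowering cell number by 2 or more were excluded. The cells are a mouse kidney inner medullary collecting duct line, silenced either for the ciliary gene Rpgrip1l or with a non-targeting control siRNA.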

Experiments:
[1] = system: mIMCD3; assay: robust z score of cell number vs plate controls; higher = more cells (less cytotoxic); settings: 10 µM, 48 h
[2] = system: mIMCD3; assay: robust z cell number difference from vehicle control (robust z score difference); higher = more cells; settings: 10 µM, 48 h
[3] = system: mIMCD3; assay: robust z score of cilia incidence (% cells with single cilium) vs plate controls; higher = more ciliated cells; settings: 10 µM; 48 h; siRNA: siScr
[4] = system: mIMCD3; assay: robust z cilia incidence difference from vehicle control (robust z score difference); higher = more ciliated cells; settings: 10 µM; 48 h; siRNA: siScr
[5] = system: mIMCD3; assay: robust z cilia incidence difference from vehicle control (robust z score difference); higher = more ciliated cells (rescue); settings: 10 µM; 48 h; siRNA: siRpgrip1l
[6] = system: mIMCD3; assay: robust z score of cilia incidence (% cells with single cilium) vs plate controls; higher = more ciliated cells (rescue of cilia loss); settings: 10 µM; 48 h; siRNA: siRpgrip1l

Structure (SMILES): C=CCN1C[C@H](C)N([C@H](c2ccc(C(=O)N(CC)CC)cc2)c2cccc(O)c2)C[C@H]1C
- robust z score of cell number ([1]; siRNA: siRpgrip1l): -1.26 ± 0.46
- robust z score of cell number ([1]; siRNA: siScr): -2.97 ± 4
- robust z cell number difference ([2]; siRNA: siRpgrip1l): -15.6
- robust z cell number difference ([2]; siRNA: siScr): -8.7 ± 5.9
- robust z score of cilia incidence [3]: 1.53 ± 0.74
- robust z cilia incidence difference [4]: 1.34 ± 3.2
- robust z cilia incidence difference [5]: -20.8
- robust z score of cilia incidence [6]: -93.4 ± 53

Structure (SMILES): C[N+]1(C)CCc2cc3c(cc2[C@H]1[C@@H]1OC(=O)c2c1ccc1c2OCO1)OCO3 [(-)-Bicuculline methiodide]
- robust z score of cell number ([1]; siRNA: siRpgrip1l): -11.1 ± 14
- robust z score of cell number ([1]; siRNA: siScr): -0.364 ± 1.2
- robust z cell number difference ([2]; siRNA: siRpgrip1l): -3.56
- robust z cell number difference ([2]; siRNA: siScr): -1.08 ± 3.1
- robust z score of cilia incidence [3]: 3.42 ± 0.12
- robust z cilia incidence difference [4]: 3.42 ± 1.4
- robust z cilia incidence difference [5]: -2.66
- robust z score of cilia incidence [6]: -12.7 ± 7.7

Structure (SMILES): O=C(O)c1nn(Cc2ccc(Cl)cc2Cl)c2ccccc12 [Lonidamine]
- robust z score of cell number ([1]; siRNA: siRpgrip1l): -28.9 ± 35
- robust z score of cell number ([1]; siRNA: siScr): -10.2 ± 0.32
- robust z score of cilia incidence [3]: -7.7 ± 4.4
- robust z score of cilia incidence [6]: -245 ± 190

Structure (SMILES): NCCc1c[nH]c2ccc(C(N)=O)cc12 [5-Carboxamidotryptamine maleate]
- robust z score of cell number ([1]; siRNA: siRpgrip1l): -3.8 ± 4.5
- robust z score of cell number ([1]; siRNA: siScr): -7.55 ± 5.9
- robust z score of cilia incidence [3]: 0.356 ± 4
- robust z score of cilia incidence [6]: -5.54 ± 3

Structure (SMILES): CCC[C@@H]1CC2=CC(=O)CC[C@]2(C)[C@H]2CC[C@@]3(C)[C@@H](CC[C@@]3(O)CCC(=O)O)[C@H]12
- robust z score of cell number ([1]; siRNA: siRpgrip1l): -14.2 ± 8.9
- robust z score of cell number ([1]; siRNA: siScr): -13.8 ± 5.6
- robust z score of cilia incidence [3]: -39 ± 41
- robust z score of cilia incidence [6]: -46.4 ± 24

Structure (SMILES): N.N.[Cl][Pt][Cl] [Cisplatin]
- robust z score of cell number ([1]; siRNA: siRpgrip1l): -18.3 ± 26
- robust z score of cell number ([1]; siRNA: siScr): -4.37 ± 1.6
- robust z cell number difference ([2]; siRNA: siRpgrip1l): -1.26
- robust z cell number difference ([2]; siRNA: siScr): -0.964 ± 0.42
- robust z score of cilia incidence [3]: 3.66 ± 1.5
- robust z cilia incidence difference [4]: 3.47 ± 3.1
- robust z cilia incidence difference [5]: -2.97
- robust z score of cilia incidence [6]: -9.52 ± 0.25

Structure (SMILES): BrC1C(Br)C(Br)C(Br)C(Br)C1Br (configuration not stated) [1,2,3,4,5,6-Hexabromocyclohexane]
- robust z score of cell number ([1]; siRNA: siRpgrip1l): -8.52 ± 4.4
- robust z score of cell number ([1]; siRNA: siScr): -3.58 ± 0.59
- robust z score of cilia incidence [3]: 3.98 ± 2.9
- robust z score of cilia incidence [6]: -10.5 ± 7.6

Structure (SMILES): CCCN(CCC)[C@@H]1CCc2c(OC)cccc2[C@@H]1C [(+)-UH 232 maleate]
- robust z score of cell number ([1]; siRNA: siRpgrip1l): -0.0617 ± 3.7
- robust z score of cell number ([1]; siRNA: siScr): 5.52 ± 9.8
- robust z score of cilia incidence [3]: -6.19 ± 5.2
- robust z score of cilia incidence [6]: -9.64 ± 2.4

Structure (SMILES): CN1[C@@H]2C[C@@H](OC(=O)[C@H](CO)c3ccccc3)C[C@H]1[C@@H]1O[C@@H]12 [Scopolamine hydrobromide]
- robust z score of cell number ([1]; siRNA: siRpgrip1l): 1.97 ± 9.6
- robust z score of cell number ([1]; siRNA: siScr): 0.214 ± 1.5
- robust z cell number difference ([2]; siRNA: siRpgrip1l): -0.109
- robust z cell number difference ([2]; siRNA: siScr): 0.501 ± 1.1
- robust z score of cilia incidence [3]: -5.13 ± 9.7
- robust z cilia incidence difference [4]: 4.26 ± 2.7
- robust z cilia incidence difference [5]: -0.412
- robust z score of cilia incidence [6]: -7.92 ± 0.54
